Where a name gives a salt, the structure may show the parent alone. The list shows a part of the results. Baselines shift from plate to plate; read single values as rough.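 A clonal Drosophila S2 line expresses Smoothened bearing circularly permuted GFP in its cytoplasmic tail; Hh-driven phosphorylation opens an inhibitory loop, making it fluoresce. Flow cytometry measured per-cell fluorescence, normalized to Hh-stimulated untreated cells. Hits were inhibitor groups with shared pathway targets that consistently shifted fluorescence, not individual compounds.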
Tested on: Drosophila S2 cl14 SmoIP sensor cells
Test: normalized SmoIP GFP fluorescence (untreated unstimulated = 0%, untreated Hh-stimulated = 100%); higher = more Smo activation sensor fluorescence
Settings: compound concentration: 15 uM, 24 h
[1] = stimulation: Hh conditioned medium (+Hh)
[2] = stimulation: mock conditioned medium (-Hh)

Structure (SMILES) | normalized SmoIP GFP fluorescence [1] | normalized SmoIP GFP fluorescence [2]
CCOC(=O)C1=C(C)NC(C)=C(C(=O)OC)C1c1cccc([N+](=O)[O-])c1 (stereo not given) [Nitrendipine] | 147% | -12.9%
CCOc1cc(N)c(Cl)cc1C(=O)NCC1CN(Cc2ccc(F)cc2)CCO1 (stereo not given) [Mosapride-citrate] | 166% | 12.1%
NC(=O)c1cccc(-c2cccc(OC(=O)NC3CCCCC3)c2)c1 | 141% | 7.01%
CC(=O)O[C@H]1CC[C@@]2(C)C(=CCC3C2CC[C@]2(C)C(c4cccnc4)=CCC32)C1 (stereo not given in full) [Abiraterone-Acetate-CB7630] | 127% | 0.605%
O=C(CCCCCN1C(=O)c2cccc3cccc(c23)C1=O)NO [scriptaid] | 144% | 6.28%
Cc1ccc(C(=O)c2cc(O)c(O)c([N+](=O)[O-])c2)cc1 [tolcapone] | 154% | 10.5%
COc1cc2c(cc1Cc1cccc(Cl)c1F)c(=O)c(C(=O)O)cn2[C@H](CO)C(C)C [Elvitegravir] | 195% | 27.7%
Cn1nnc2c(C(N)=O)ncn2c1=O [Methazolastone] | 122% | -1.34%
CC(=O)NS(=O)(=O)c1ccc(N)cc1 [sulfacetamide-sodium] | 110% | -4.35%
CNC(=O)c1cc(COc2nnc(Nc3ccc(Cl)cc3)c3ccoc23)ccn1 [Telatinib-BAY-57-9352] | 221% | 90.3%
CCS(=O)(=O)c1cccc(-c2cc(C(=O)NC3CCN(C)CC3)c(C)c3[nH]c4ncc(C)cc4c23)c1 | 88.3% | -15.6%
O=C(O)c1ccc(C=C2SC(=S)N(c3cccc(C(F)(F)F)c3)C2=O)cc1 [cftrinh-172] | 152% | 37.7%
Cc1cc(N2CCOCC2)ccc1Nc1nc(NC2CCCCC2)c2[nH]cnc2n1 | 151% | 11.6%
C#Cc1cccc(Nc2ncnc3cc4c(cc23)OCCOCCOCCO4)c1 [icotinib] | 113% | 5.59%
COc1ccc2cc(CCC(C)=O)ccc2c1 [nabumetone] | 112% | -3.79%
O=C(Nc1ccc(S(=O)(=O)Nc2ccccc2Cl)c(Cl)c1)c1ccccn1 | 171% | -5.17%
C[C@H](Cc1cc2c(c(C(N)=O)c1)N(CCCO)CC2)NCCOc1ccccc1OCC(F)(F)F [Silodosin(Rapaflo)] | 135% | 15.9%
CC1=C(C(=O)OC(C)C)C(c2cccc([N+](=O)[O-])c2)C(C(=O)OC2CN(C(c3ccccc3)c3ccccc3)C2)=C(N)N1 (stereo not given) [azelnidipine] | 129% | 22.5%
Nc1ccc(-c2ccc3ncc4ccc(=O)n(-c5cccc(C(F)(F)F)c5)c4c3c2)cn1 [torin-2] | 48.4% | 30.8%
O=C1CCC(N2C(=O)c3ccccc3C2=O)C(=O)N1 (stereo not given) [Thalidomide] | 145% | 4.58%
O=C(c1cncc(Br)c1)N1CCC(N2CCCC2)CC1 | 159% | 33.9%
CC(C)(O)[C@H]1CC[C@@](C)([C@H]2[C@@H](O)C[C@@]3(C)[C@@H]4C[C@H](O[C@@H]5O[C@H](CO)[C@@H](O)[C@H](O)[C@H]5O)[C@H]5C(C)(C)[C@@H](O[C@@H]6OC[C@@H](O)[C@H](O)[C@H]6O)CC[C@@]56C[C@@]46CC[C@]23C)O1 [astragaloside-a] | 127% | -12.7%
Oc1ccc(/C=C/c2cc(O)cc(O)c2)cc1 [Resveratrol] | 125% | 6.74%
C#CCC(Cc1cnc2nc(N)nc(N)c2n1)c1ccc(C(=O)N[C@@H](CCC(=O)O)C(=O)O)cc1 (stereo not given in full) [Pralatrexate(Folotyn)] | 220% | 21%
Cc1ccc(C(=O)Nc2cccc(C(F)(F)F)c2)cc1Nc1nc(-c2cccnc2)nc2c1cnn2C | 105% | 31%
O=C(Cc1ccc(-c2ccc(OCCN3CCOCC3)cc2)cn1)NCc1ccccc1 | 112% | 15.4%
O=c1sn(-c2cccc3ccccc23)c(=O)n1Cc1ccccc1 [tideglusib] | 121% | 31.2%
COc1cc2ncnc(Nc3ccc(F)c(Cl)c3)c2cc1OCCCN1CCOCC1 [Gefitinib] | 230% | 86.4%

Four successive records from above, for reference:
Structure (SMILES) | normalized SmoIP GFP fluorescence [1] | normalized SmoIP GFP fluorescence [2]
CC(=O)O[C@H]1CC[C@@]2(C)C(=CCC3C2CC[C@]2(C)C(c4cccnc4)=CCC32)C1 (stereo not given in full) [Abiraterone-Acetate-CB7630] | 127% | 0.605%
O=C(CCCCCN1C(=O)c2cccc3cccc(c23)C1=O)NO [scriptaid] | 144% | 6.28%
Cc1ccc(C(=O)c2cc(O)c(O)c([N+](=O)[O-])c2)cc1 [tolcapone] | 154% | 10.5%
COc1cc2c(cc1Cc1cccc(Cl)c1F)c(=O)c(C(=O)O)cn2[C@H](CO)C(C)C [Elvitegravir] | 195% | 27.7%

The results go on.

Structure (SMILES) | normalized SmoIP GFP fluorescence [1] | normalized SmoIP GFP fluorescence [2]
COc1ccnc2[nH]cc(C(=O)C(=O)N3CCN(C(=O)c4ccccc4)C[C@H]3C)c12 | 127% | -12.7%
O=C(CSc1nc2c(c(=O)n1-c1ccccc1)SCC2)Nc1ccc(-c2ccccc2)cn1 | 138% | 46.9%
Cc1cc([C@@H](C)Nc2ccccc2C(=O)O)c2nc(N3CCOCC3)cc(=O)n2c1 | 84.6% | 20.4%
O=c1oc2cc(O)ccc2s1 [tioxolone] | 145% | -6.97%
COC(=O)Nc1ccc(-c2nc(N3CCOCC3)c3cnn(C4CCN(C(=O)OC)CC4)c3n2)cc1 | 75.9% | 4.04%
CCOc1ccc(Cc2cc([C@@H]3O[C@H](CO)[C@@H](O)[C@H](O)[C@H]3O)ccc2Cl)cc1 [Dapagliflozin] | 120% | -1.88%
CN1[C@@H]2CC[C@H]1C[C@@H](OC(=O)c1c[nH]c3ccccc13)C2 [Tropisetron-hydrochloride] | 146% | -9.22%
Cc1cn(-c2cc(NC(=O)c3ccc(C)c(Nc4nccc(-c5cccnc5)n4)c3)cc(C(F)(F)F)c2)cn1 [Nilotinib] | 125% | 7.06%
NC(=O)c1ncn([C@@H]2O[C@H](CO)[C@@H](O)[C@H]2O)c1N [Acadesine] | 113% | -17.2%
O=C(Nc1ccccc1)N1CCN(c2nc(-c3ccccc3)ns2)CC1 | 120% | 25.8%
Cc1ccc(S(=O)(=O)C=CC#N)cc1 | 96.1% | 84.4%
N=C(N)NC(=N)NCCc1ccccc1 [Phenformin-hydrochloride] | 135% | -9.04%
N#Cc1ccc2[nH]c(O)c(-c3ccc(CN4CCOCC4)cn3)c2c1 | 208% | 60.5%
CCOC(=O)[C@H](CCc1ccccc1)N[C@@H](C)C(=O)N1CCC[C@H]1C(=O)O [Enalapril-maleate(Vasotec)] | 116% | -12.7%
COCCCOc1cc(C[C@@H](C[C@H](N)[C@@H](O)C[C@H](C(=O)NCC(C)(C)C(N)=O)C(C)C)C(C)C)ccc1OC [Aliskiren-hemifumarate] | 137% | -16.1%
COc1cc2c(cc1OC)[C@@H]1Cc3ccc(OC)c(OC)c3CN1CC2 [rotundine] | 217% | 48.4%
Cc1nnc(C(C)C)n1C1C[C@H]2CC[C@@H](C1)N2CC[C@H](NC(=O)C1CCC(F)(F)CC1)c1ccccc1 (stereo in doubt) [Maraviroc] | 134% | -7.42%
O=C(/C=C\n1cnc(-c2cc(C(F)(F)F)cc(C(F)(F)F)c2)n1)N1CC(F)(F)C1 | 124% | 22.1%
COc1ccc(C2=N[C@@H](c3ccc(Cl)cc3)[C@@H](c3ccc(Cl)cc3)N2C(=O)N2CCNC(=O)C2)c(OC(C)C)c1 [Nutlin-3] | 158% | 39.5%
O=S(=O)(c1cccc2cnccc12)N1CCCNCC1 [Fasudil-HCl(HA-1077)] | 128% | 2.11%
CC(COc1ccccc1)N(CCCl)Cc1ccccc1 (stereo not given) [Phenoxybenzamine-hydrochloride] | 198% | 2.95%
CCOC(=O)C1=C(N)Oc2ccc(Br)cc2C1C(C#N)C(=O)OCC (stereo not given) | 115% | 48.5%
CN1CCN(C(=O)c2cc3cc(Cl)ccc3[nH]2)CC1 | 124% | 17.1%
CCN1CCN(Cc2ccc(-c3cc4c(N[C@H](C)c5ccccc5)ncnc4[nH]3)cc2)CC1 | 190% | 66.3%
O=C(O)Cc1cccc(OCCCN(Cc2cccc(C(F)(F)F)c2Cl)CC(c2ccccc2)c2ccccc2)c1 | 126% | 75.7%
CCCCOc1cc(C(=O)NCCN(CC)CC)c2ccccc2n1 [dibucaine-cinchocaine-hcl] | 137% | 15.4%
c1ccc(-c2[nH]ncc2-c2ccnc3ccccc23)nc1 | 129% | 20.9%

— the supplement of paper PMC5662767
